Results are given in words; binding and its absence hold for the method and conditions named. Binding can be weak; no strength is given.
Legend:
[1] = target: PTGFRN on SCSC cells (hamster spindle cell sarcomatoid carcinoma) (hamster); test: flow cytometry, SCSC cells
[2] = target: PTGFRN on SCSC cells (hamster spindle cell sarcomatoid carcinoma) (hamster); test: flow cytometry, hamster spindle cell carcinoma cells
[3] = target: PTGFRN on SCSC cells (hamster spindle cell sarcomatoid carcinoma) (hamster); test: flow cytometry (RFI), SCSC cells, 33B7 at 5 µg/mL
[4] = target: PTGFRN on SCSC cells (hamster spindle cell sarcomatoid carcinoma) (hamster); test: flow cytometry on cancer cells, 33B7 at 5 µg/mL with rabbit anti-mouse IgG and Alexa fluor 647 goat anti-rabbit IgG (Example 3)

Measured: binding

B1: 33B7 (antibody, V domains shown)
VH: DVQLQESGPGLVKPSQSLSLTCSVTGCSITSGYYWNWIRQFPGNKLEWMGYISHDGNNNYSPSLKNRISITRDTSKNQFFLKLNSVTTEDTATYYCARGFYYYGYFGYWGQGTTLTVSS
VL: DIVMSQSPSSLAVSVGEKVTMSCKSSQSLLYSTNQKNYLAWYQQKPGQSPKPLIYWASTRESGVPDRFTGSGSGTDFTLTISSVKAEDLAVYYCQQYYSYRTFGGGTKLEIKR
notes: Murine hybridoma monoclonal IgG (ATCC PTA-124281); also called AG02; AGO2
binds: all assays above

Source: patent US20210188972A1 (A AND G PHARMACEUTICAL, published 2021)
